Results deposited as PubChem BioAssay AID1259259 (Sanger Institute, 2017).
Purpose: 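Synthetic lethal kinase partners of anchor drugs in colorectal cancer cells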 (primary screen). Cells: SW1463 human colorectal cancer cells. Reagent: siRNA pool against human genes. Conditions: DMSO vehicle, or one anchor drug: BYL719 at 1 µM, cetuximab at 5 µg/ml, or trametinib at 10 nM. Measurement: 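Viability as fraction of control pool 2 (non-targeting), replicate mean; knock-down robust z-score without any drug; synergy score averaged for each anchor drug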. Scale: robust z-score, knock-down alone: higher = more viable cells after knock-down; viability, knock-down alone: higher = more viable cells; synergy score with BYL719 and synergy score with cetuximab and synergy score with trametinib: higher = stronger synergy (synthetic lethal) with drug. Hit rule: 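Knock-down called essential when its robust z-score without drug falls below -3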. Calls: active = essential: viability loss from knock-down alone; inactive = no change from knock-down alone.
Shown is one part, drawn at random, of 794 deposited reagents. Over the whole deposit, 9 (1.1%) got an active call. 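Calls rest on knock-down alone, not drug synergy; viability values seem capped at 1.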 A number with no mark means an inactive call. Not stated in the record: the amount of reagent, the time to read-out.

gene symbol | robust z-score, knock-down alone | viability, knock-down alone (fraction of control) | synergy score with BYL719 | synergy score with cetuximab | synergy score with trametinib
IP6K3 (inositol hexakisphosphate kinase 3) | 1.13 | 1 | 0 | 0.217 | 0.0858
RIPK4 (receptor interacting serine/threonine kinase 4) | 1.13 | 1 | 0 | 0.0766 | 0.0677
RAD21 (RAD21 cohesin complex component) | 1.13 | 1 | 0.077 | 0.0662 | -0.0326
PIK3C2A | -2.27 | 0.782 | -0.00994 | 0.193 | -0.037
DTYMK (deoxythymidylate kinase) | 0.709 | 0.973 | 0.00789 | -0.024 | -0.0382
BRD3 (bromodomain containing 3) | 1.13 | 1 | 0.0637 | 0.0218 | 0.0709
PASK (PAS domain containing serine/threonine kinase) | 1.05 | 0.995 | -0.0048 | 0.118 | 0.0532
ARID1A (AT-rich interaction domain 1A) | -1.05 | 0.86 | 0.000166 | 0.0604 | 0.0922
MARK2 (microtubule affinity regulating kinase 2) | -1.12 | 0.855 | -0.0789 | -0.0376 | -0.0312
BRWD1 (bromodomain and WD repeat domain containing 1) | -0.689 | 0.883 | -0.108 | 0.00996 | 0.124

Limited to “synergy score with trametinib” (3 entries from above):
PASK (PAS domain containing serine/threonine kinase): 0.0532
ARID1A (AT-rich interaction domain 1A): 0.0922
MARK2 (microtubule affinity regulating kinase 2): -0.0312

Additional records follow:
gene symbol | robust z-score, knock-down alone | viability, knock-down alone (fraction of control) | synergy score with BYL719 | synergy score with cetuximab | synergy score with trametinib
BCOR (BCL6 corepressor) | -1.81 | 0.811 | -0.163 | -0.0186 | -0.0574
BPTF (bromodomain PHD finger transcription factor) | -1.63 | 0.823 | -0.111 | 0.0503 | 0.0658
EXOSC10 (exosome component 10) | -1.03 | 0.861 | -0.125 | 0.163 | -0.163
HIPK3 (homeodomain interacting protein kinase 3) | -0.493 | 0.896 | 0.0527 | -0.114 | -0.0662
GRK5 (G protein-coupled receptor kinase 5) | 1.13 | 1 | 0 | -0.0272 | -0.0326
MPP1 (MAGUK p55 scaffold protein 1) | 0.857 | 0.983 | -0.0173 | 0.202 | -0.0257
MELK (maternal embryonic leucine zipper kinase) | 0.0314 | 0.93 | -0.0703 | 0.167 | 0.056
PRKCG (protein kinase C gamma) | -0.0785 | 0.923 | -0.0774 | -0.0619 | 0.0625
FN3K (fructosamine 3 kinase) | -0.427 | 0.9 | 0.0734 | -0.0287 | -0.129
CDKL1 (cyclin dependent kinase like 1) | -0.712 | 0.882 | 0.052 | 0.141 | 0.0486
